Measured values: the supplement of paper PMC10849652
The list shows a part of the results. Residues, ends and D or L forms follow the SMILES beside them. *: point of attachment. Cbz = O=C(OCc1ccccc1)*

The chains behind the UniProt entries cited, without tags or fusion partners. Where a name states a change or a piece, a line headed by the entry shows the natural chain unless it says otherwise.
UniProt Q99638: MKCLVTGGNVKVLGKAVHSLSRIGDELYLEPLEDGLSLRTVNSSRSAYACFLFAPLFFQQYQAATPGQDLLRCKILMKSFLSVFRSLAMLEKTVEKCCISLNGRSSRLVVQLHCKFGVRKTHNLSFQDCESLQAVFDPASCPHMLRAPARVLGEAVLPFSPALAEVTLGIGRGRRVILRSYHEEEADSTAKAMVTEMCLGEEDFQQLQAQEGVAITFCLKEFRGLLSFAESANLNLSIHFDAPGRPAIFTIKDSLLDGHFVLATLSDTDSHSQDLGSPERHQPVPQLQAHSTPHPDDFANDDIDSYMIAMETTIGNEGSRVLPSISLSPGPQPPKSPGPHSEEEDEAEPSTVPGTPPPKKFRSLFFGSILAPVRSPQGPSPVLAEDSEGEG
UniProt P51159: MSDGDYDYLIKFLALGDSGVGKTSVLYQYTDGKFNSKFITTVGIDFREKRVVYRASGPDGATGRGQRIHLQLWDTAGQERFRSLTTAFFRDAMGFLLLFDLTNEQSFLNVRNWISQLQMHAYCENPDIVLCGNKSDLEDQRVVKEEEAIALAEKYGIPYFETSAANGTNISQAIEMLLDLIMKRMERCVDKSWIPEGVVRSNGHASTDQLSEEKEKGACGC
UniProt P61019: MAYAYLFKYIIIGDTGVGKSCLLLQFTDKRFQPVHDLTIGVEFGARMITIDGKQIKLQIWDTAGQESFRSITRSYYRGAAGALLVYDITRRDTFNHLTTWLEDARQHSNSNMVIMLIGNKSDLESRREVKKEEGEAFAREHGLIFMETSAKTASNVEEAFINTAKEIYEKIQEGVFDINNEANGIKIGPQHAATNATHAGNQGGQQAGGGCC
UniProt Q3YEC7: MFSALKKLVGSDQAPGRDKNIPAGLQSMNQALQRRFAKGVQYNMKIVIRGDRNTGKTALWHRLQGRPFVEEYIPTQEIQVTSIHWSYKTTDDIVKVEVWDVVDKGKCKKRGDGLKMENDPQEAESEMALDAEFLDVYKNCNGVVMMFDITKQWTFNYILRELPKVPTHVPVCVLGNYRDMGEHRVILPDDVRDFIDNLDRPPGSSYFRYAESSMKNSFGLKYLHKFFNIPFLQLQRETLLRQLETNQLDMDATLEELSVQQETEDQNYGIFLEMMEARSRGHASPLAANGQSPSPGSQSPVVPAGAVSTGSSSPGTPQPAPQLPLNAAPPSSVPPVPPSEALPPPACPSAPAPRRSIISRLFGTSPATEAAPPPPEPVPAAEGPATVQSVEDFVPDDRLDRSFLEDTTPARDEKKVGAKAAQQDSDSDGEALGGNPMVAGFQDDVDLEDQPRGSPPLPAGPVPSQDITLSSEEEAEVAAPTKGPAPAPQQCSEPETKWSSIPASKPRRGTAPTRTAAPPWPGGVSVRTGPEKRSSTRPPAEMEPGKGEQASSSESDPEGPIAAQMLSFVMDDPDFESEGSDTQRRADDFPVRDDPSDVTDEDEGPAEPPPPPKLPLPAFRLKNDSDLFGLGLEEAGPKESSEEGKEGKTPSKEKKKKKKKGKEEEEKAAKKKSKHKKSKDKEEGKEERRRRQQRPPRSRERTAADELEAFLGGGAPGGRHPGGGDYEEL
UniProt P98179: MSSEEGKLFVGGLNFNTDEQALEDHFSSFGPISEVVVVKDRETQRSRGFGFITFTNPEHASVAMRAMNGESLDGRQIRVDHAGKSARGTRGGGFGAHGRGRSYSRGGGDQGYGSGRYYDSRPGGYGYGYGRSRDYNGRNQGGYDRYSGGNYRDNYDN
UniProt Q9NP72: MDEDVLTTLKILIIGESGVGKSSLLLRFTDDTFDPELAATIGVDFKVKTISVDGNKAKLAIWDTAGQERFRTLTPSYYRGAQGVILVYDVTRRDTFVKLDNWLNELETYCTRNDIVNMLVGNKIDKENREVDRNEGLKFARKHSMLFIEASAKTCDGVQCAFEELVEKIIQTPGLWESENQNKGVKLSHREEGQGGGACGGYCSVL
UniProt Q9UJ41, whole entry, looked up: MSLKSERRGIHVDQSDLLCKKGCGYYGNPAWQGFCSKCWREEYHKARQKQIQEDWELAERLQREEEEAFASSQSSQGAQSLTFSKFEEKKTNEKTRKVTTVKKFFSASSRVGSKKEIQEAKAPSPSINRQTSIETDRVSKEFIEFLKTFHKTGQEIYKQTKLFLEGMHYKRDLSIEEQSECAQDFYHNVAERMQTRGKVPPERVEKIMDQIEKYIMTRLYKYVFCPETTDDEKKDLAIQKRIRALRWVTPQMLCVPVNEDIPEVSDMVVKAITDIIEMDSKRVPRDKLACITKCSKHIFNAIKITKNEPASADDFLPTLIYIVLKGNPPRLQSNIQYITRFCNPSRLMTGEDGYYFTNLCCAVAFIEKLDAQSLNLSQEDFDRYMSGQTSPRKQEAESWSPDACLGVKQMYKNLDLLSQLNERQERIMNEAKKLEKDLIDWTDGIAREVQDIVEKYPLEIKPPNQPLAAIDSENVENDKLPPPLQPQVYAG
UniProt P61006: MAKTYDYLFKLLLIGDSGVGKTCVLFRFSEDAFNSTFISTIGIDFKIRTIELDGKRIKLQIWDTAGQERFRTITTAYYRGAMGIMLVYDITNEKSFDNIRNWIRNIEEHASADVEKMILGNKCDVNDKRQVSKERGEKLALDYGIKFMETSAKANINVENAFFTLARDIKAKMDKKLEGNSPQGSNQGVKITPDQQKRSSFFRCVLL
UniProt O60216: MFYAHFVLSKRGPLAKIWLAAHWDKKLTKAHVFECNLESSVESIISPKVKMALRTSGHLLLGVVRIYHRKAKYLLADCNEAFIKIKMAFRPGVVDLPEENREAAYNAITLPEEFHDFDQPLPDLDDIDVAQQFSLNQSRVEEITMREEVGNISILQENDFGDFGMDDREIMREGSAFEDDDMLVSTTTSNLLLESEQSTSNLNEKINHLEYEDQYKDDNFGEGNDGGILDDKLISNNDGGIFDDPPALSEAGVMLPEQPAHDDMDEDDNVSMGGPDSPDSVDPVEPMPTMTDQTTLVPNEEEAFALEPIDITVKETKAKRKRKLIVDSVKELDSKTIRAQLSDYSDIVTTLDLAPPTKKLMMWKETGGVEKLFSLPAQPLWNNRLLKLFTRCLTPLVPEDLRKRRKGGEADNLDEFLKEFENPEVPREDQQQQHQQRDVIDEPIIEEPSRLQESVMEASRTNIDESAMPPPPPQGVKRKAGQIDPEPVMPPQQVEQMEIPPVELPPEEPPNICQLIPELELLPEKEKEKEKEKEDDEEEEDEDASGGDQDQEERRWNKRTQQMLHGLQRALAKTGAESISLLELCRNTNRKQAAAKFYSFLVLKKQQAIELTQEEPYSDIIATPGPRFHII
UniProt P61224: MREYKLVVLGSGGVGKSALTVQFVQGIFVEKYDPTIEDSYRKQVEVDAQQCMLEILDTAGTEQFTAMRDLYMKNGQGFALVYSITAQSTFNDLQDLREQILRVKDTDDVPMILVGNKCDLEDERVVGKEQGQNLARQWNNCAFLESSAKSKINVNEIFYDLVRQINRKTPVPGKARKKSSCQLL
UniProt Q53S08: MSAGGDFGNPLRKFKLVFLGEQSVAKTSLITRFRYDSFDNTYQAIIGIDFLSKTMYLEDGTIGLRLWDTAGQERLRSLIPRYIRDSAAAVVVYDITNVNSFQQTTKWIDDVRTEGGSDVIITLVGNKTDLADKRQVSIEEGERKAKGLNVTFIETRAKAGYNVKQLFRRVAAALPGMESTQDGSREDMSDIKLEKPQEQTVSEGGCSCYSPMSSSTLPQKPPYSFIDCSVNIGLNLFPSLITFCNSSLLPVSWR
UniProt P51153: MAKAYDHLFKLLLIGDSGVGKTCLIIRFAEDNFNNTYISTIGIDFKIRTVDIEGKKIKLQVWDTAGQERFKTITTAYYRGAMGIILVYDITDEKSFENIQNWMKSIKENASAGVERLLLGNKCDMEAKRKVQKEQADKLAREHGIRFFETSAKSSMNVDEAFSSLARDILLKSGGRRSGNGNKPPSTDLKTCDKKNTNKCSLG
UniProt Q15291, whole entry, looked up: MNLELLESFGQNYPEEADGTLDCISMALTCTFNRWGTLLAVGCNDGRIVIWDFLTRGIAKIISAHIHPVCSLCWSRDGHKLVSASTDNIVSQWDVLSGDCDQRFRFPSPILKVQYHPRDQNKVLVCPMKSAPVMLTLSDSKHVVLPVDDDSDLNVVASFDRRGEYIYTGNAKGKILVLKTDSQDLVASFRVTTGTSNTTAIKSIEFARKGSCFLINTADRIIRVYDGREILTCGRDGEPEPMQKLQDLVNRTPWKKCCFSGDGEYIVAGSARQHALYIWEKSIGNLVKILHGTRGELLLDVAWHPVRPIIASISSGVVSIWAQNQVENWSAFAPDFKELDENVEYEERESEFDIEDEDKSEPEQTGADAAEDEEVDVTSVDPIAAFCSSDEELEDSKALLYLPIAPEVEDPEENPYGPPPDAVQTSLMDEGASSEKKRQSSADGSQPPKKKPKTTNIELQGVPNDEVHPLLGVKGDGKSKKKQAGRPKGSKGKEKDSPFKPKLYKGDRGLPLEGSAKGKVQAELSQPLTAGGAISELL
UniProt Q7Z6M1: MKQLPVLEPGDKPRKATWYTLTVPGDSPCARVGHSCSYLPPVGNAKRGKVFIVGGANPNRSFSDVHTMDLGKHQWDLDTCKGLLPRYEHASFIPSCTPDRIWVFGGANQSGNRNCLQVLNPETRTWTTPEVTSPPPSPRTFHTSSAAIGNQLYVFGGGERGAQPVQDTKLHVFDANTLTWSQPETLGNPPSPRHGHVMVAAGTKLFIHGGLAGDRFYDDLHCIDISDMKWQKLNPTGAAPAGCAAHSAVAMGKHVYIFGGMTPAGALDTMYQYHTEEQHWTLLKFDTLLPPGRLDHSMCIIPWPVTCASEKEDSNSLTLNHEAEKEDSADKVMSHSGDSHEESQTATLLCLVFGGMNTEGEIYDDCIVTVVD
UniProt Q96S59, whole entry, looked up: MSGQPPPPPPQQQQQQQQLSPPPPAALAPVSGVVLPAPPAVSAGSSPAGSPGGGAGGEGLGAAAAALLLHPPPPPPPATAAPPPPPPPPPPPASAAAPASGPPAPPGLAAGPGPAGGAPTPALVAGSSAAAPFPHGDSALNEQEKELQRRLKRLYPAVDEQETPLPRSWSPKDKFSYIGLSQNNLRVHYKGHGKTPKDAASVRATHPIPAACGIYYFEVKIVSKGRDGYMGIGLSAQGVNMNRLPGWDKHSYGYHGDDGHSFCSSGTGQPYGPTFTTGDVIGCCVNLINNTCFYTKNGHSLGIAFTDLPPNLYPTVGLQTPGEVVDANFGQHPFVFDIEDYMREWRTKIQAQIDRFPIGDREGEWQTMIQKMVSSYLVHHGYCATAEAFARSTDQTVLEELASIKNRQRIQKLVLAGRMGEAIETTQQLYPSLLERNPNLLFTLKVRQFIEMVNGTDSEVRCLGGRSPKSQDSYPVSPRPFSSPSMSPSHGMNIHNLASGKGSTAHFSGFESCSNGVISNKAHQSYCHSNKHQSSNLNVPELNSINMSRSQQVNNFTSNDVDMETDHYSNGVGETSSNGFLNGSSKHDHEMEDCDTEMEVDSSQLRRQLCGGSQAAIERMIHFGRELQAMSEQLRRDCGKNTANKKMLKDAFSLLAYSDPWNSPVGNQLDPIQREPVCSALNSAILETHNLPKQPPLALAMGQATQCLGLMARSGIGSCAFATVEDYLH
UniProt Q15907: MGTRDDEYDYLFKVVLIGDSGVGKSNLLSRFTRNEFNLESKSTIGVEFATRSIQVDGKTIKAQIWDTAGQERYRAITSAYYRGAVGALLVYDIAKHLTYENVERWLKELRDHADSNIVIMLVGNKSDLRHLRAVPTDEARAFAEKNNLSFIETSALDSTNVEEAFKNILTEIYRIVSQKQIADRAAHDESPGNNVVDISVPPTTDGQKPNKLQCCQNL
UniProt O43251: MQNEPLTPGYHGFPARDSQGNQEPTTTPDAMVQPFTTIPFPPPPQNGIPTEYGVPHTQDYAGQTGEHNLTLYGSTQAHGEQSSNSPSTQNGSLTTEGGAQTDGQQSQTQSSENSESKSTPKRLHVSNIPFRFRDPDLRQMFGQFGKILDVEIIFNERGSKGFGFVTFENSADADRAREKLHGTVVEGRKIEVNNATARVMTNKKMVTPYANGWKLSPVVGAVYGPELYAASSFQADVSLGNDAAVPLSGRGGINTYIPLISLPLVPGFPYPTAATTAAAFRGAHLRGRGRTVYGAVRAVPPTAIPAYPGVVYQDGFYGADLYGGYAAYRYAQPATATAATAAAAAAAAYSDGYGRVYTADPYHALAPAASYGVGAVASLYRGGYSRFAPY
UniProt Q9ULC3: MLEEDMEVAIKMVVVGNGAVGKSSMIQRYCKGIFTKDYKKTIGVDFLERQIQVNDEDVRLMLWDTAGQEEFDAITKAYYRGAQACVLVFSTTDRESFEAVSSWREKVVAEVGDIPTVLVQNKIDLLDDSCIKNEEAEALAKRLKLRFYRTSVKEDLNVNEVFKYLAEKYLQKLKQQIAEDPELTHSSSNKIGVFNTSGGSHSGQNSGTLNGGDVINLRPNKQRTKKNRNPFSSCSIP
UniProt Q9BTL3: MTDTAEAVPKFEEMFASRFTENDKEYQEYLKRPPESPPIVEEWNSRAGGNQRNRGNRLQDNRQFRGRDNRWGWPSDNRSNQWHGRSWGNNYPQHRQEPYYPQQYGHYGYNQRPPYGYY

Columns and labels:
Assay in all cases: log2 fold change, soluble protein after heating vs DMSO (PISA); higher = thermal stabilisation; K562 cells, 10 uM, 30 min; active = over 0.2 and 3.5 SD of the protein, either way, in both replicates (recomputed)
[1] = compound: C1COCCN1CCN2C3=CC=CC=C3N=C2NC(=O)C4=CC(=CC=C4)[N+](=O)[O-] [IRAK-1-4 Inhibitor I]
In short: (§1)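 K562 cells at 2×10^6 cells/mL were given 10 μM compound for 30 min. Aliquots then went through 3 min of heating across 48°C-58°C, were pooled, and were extracted in PBS with 0.5% NP-40 at 4°C, and the supernatant after 21,000xg for 90 min was quantified by TMTpro 16plex LC-MS/MS with channel sums equalised. Thermal stability relative to control samples, from duplicates, is given as log2 fold change.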

[2] = compound: C=CC(=O)N1CCC[C@@H](n2nc(-c3ccc(Oc4ccccc4)cc3)c3c(N)ncnc32)C1 [ibrutinib]
In short: as §1

[3] = compound: CC(=O)c1cnc2ccc(-c3cc(Cl)c(O)c(Cl)c3)nc2c1N[C@H]1CC[C@H](CN(C)C)CC1
In short: as §1

[4] = compound: CC(C)(C)Cn1c(N)nc2ccc(-c3[nH]c(C(C)(C)C)nc3-c3ccc(F)cc3)nc21 [ralimetinib]
In short: as §1

[5] = compound: CC(C)(O)CC(=O)NCCn1ccc2ncnc(Nc3ccc(Oc4cccc(C(F)(F)F)c4)c(Cl)c3)c21
In short: as §1

[6] = compound: CC(C)C1=C2N=C(C=C(N2N=C1)NCC3=CC=CC=C3)NCCCCCCN
In short: as §1

[7] = compound: CC(C)C[C@@H](C=O)NC(=O)[C@H](CC(C)C)NC(=O)[C@H](CC(C)C)NC(=O)OCc1ccccc1
In short: as §1

[8] = compound: CC(C)N(C[C@H]1O[C@@H](n2cnc3c(N)ncnc32)[C@H](O)[C@@H]1O)[C@H]1C[C@@H](CCc2nc3cc(C(C)(C)C)ccc3[nH]2)C1 [pinometostat]
In short: as §1

[9] = compound: CC1=C(C(CC(=O)N1)C2=CC=C(C=C2)C(F)(F)F)C(=O)NC3=C(C=C4C(=C3)C=NN4)F
In short: as §1

[10] = compound: CC1=C(C2=C(C=C1)C(=O)C3=CC=CC=C3N2CCCN)C
In short: as §1

Measured: log2 fold change

RANBP3 (UniProt Q9H6Z4)
inactive: [1] 0.005 | [2] 0.026 | [3] 0.011 | [4] -0.014 | [5] -0.019 | [6] 0.04 | [7] 0.012 | [8] -0.055 | [9] -0.013 | [10] -0.019

RAD9A (UniProt Q99638)
inactive: [1] 0.008 | [2] 0.013 | [3] 0.037 | [4] 0.088 | [5] -0.033 | [6] 0.073 | [7] -0.067 | [8] -0.062 | [9] -0.016 | [10] 0.024

RAB27A (UniProt P51159)
inactive: [1] 0.019 | [2] -0.013 | [3] -0.021 | [4] -0.068 | [5] 0.022 | [6] -0.019 | [7] -0.064 | [8] -0.033 | [9] -0.005 | [10] 0.053

RAB2A (UniProt P61019)
inactive: [1] 0.005 | [2] -0.024 | [3] -0.052 | [4] -0.068 | [5] 0.004 | [6] 0 | [7] -0.007 | [8] -0.026 | [9] -0.012 | [10] 0.009

RABL6 (UniProt Q3YEC7)
inactive: [1] -0.022 | [2] 0.023 | [3] -0.172 | [4] -0.034 | [5] -0.002 | [6] 0.048 | [7] 0.047 | [8] 0.018 | [9] 0.006 | [10] 0.081

RANBP1 (UniProt P43487)
inactive: [1] -0.034 | [2] -0.043 | [3] 0.018 | [4] -0.046 | [5] -0.011 | [6] 0.018 | [7] -0.035 | [8] -0.107 | [9] 0.063 | [10] -0.072

RAC2 (UniProt P15153)
inactive: [1] 0 | [2] 0.048 | [3] 0.053 | [4] -0.012 | [5] 0.235 | [6] 0.056 | [7] -0.054 | [8] -0.049 | [9] 0.017 | [10] 0.015

RBM3 (UniProt P98179)
inactive: [1] -0.06 | [2] 0.081 | [3] 0.017 | [4] 0.066 | [5] 0.086 | [6] 0.174 | [7] 0.281 | [8] 0.184 | [9] 0.01 | [10] -0.04

RAB1B (UniProt Q9H0U4)
inactive: [1] 0.019 | [2] -0.022 | [3] -0.053 | [4] 0 | [5] 0.023 | [6] 0.028 | [7] -0.037 | [8] -0.06 | [9] -0.016 | [10] 0.002

RAB7A (UniProt P51149)
inactive: [1] 0.042 | [2] 0.03 | [3] 0.017 | [4] -0.045 | [5] 0.026 | [6] 0.016 | [7] 0 | [8] -0.06 | [9] 0.01 | [10] -0.026

RAB10 (UniProt P61026)
inactive: [1] 0.044 | [2] -0.014 | [3] 0.001 | [4] -0.071 | [5] 0.012 | [6] 0.078 | [7] -0.025 | [8] -0.03 | [9] -0.015 | [10] 0.003

RAB18 (UniProt Q9NP72)
inactive: [1] 0.013 | [2] 0.016 | [3] -0.002 | [4] -0.07 | [5] 0.046 | [6] 0.058 | [7] -0.002 | [8] -0.055 | [9] 0.019 | [10] 0.014

RABGEF1 isoform 3 (UniProt Q9UJ41)
inactive: [1] 0 | [2] -0.028 | [3] -0.084 | [4] -0.066 | [5] -0.025 | [6] 0.002 | [7] 0.041 | [8] 0 | [9] 0.005 | [10] 0.011

RAB8A isoform 2 (UniProt P61006)
inactive: [1] 0.014 | [2] -0.015 | [3] 0.024 | [4] -0.042 | [5] 0.009 | [6] 0.041 | [7] -0.02 | [8] -0.021 | [9] -0.01 | [10] 0.005

RAD21 (UniProt O60216)
inactive: [1] -0.004 | [2] -0.003 | [3] -0.119 | [4] -0.042 | [5] -0.019 | [6] 0.082 | [7] 0.06 | [8] 0.014 | [9] -0.013 | [10] -0.123

RAD18 (UniProt Q9NS91)
inactive: [1] -0.067 | [2] -0.116 | [3] -0.099 | [4] -0.028 | [5] -0.133 | [6] -0.11 | [7] -0.003 | [8] -0.086 | [9] 0.081 | [10] -0.331

RAP1B (UniProt P61224)
inactive: [1] 0.064 | [2] 0.024 | [3] 0.024 | [4] 0.101 | [5] -0.004 | [6] 0.082 | [7] -0.036 | [8] -0.026 | [9] 0.038 | [10] 0.02

RAB6D (UniProt Q53S08)
inactive: [1] 0.044 | [2] 0.001 | [3] 0.001 | [4] 0.04 | [5] 0.051 | [6] 0.085 | [7] 0.006 | [8] -0.041 | [9] 0.023 | [10] 0.018

RAB13 (UniProt P51153)
inactive: [1] 0.013 | [2] 0.003 | [3] 0.023 | [4] -0.055 | [5] -0.007 | [6] 0.015 | [7] -0.088 | [8] -0.037 | [9] -0.019 | [10] -0.018

RBBP5 (UniProt Q15291)
inactive: [1] 0.025 | [2] 0.016 | [3] 0.05 | [4] -0.012 | [5] 0.032 | [6] 0.102 | [7] 0.013 | [8] 0.004 | [9] 0.026 | [10] -0.033

RABEPK (UniProt Q7Z6M1)
inactive: [1] 0.069 | [2] 0.038 | [3] 0.068 | [4] -0.032 | [5] -0.016 | [6] 0.041 | [7] 0.011 | [8] 0.003 | [9] 0.024 | [10] 0.025

RANBP9 (UniProt Q96S59)
inactive: [1] 0.003 | [2] -0.026 | [3] 0.052 | [4] 0.038 | [5] 0.011 | [6] -0.032 | [7] 0.012 | [8] 0.011 | [9] 0.023 | [10] -0.086

Looked up one by one from the list above, two records:
RAB27A (UniProt P51159)
inactive: [1] 0.019 | [2] -0.013 | [3] -0.021 | [4] -0.068 | [5] 0.022 | [6] -0.019 | [7] -0.064 | [8] -0.033 | [9] -0.005 | [10] 0.053

RAB18 (UniProt Q9NP72)
inactive: [1] 0.013 | [2] 0.016 | [3] -0.002 | [4] -0.07 | [5] 0.046 | [6] 0.058 | [7] -0.002 | [8] -0.055 | [9] 0.019 | [10] 0.014

(list continues)

RBM10 isoform 5 (UniProt P98175)
inactive: [1] -0.018 | [2] -0.041 | [3] -0.09 | [4] 0.01 | [5] 0.052 | [6] 0.023 | [7] 0.103 | [8] 0.033 | [9] -0.122 | [10] 0.083

RAB11B (UniProt Q15907)
inactive: [1] 0.075 | [2] -0.006 | [3] 0.026 | [4] -0.092 | [5] 0.058 | [6] 0.065 | [7] -0.006 | [8] -0.017 | [9] -0.003 | [10] -0.068

RBFOX2 isoform 8 (UniProt O43251)
inactive: [1] -0.017 | [2] 0.064 | [3] 0.032 | [4] 0.124 | [5] -0.149 | [6] -0.076 | [7] -0.094 | [8] 0.1 | [9] 0.248 | [10] -0.025

RAP1GAP isoform 4 (UniProt P47736)
inactive: [1] -0.006 | [2] -0.027 | [3] -0.137 | [4] -0.012 | [5] -0.027 | [6] -0.278 | [7] 0.082 | [8] -0.021 | [9] 0.077 | [10] 0.043

RAB23 (UniProt Q9ULC3)
inactive: [1] 0.016 | [2] -0.014 | [3] 0.006 | [4] -0.065 | [5] 0.004 | [6] 0.08 | [7] -0.026 | [8] -0.022 | [9] -0.022 | [10] 0.004

RAMAC (UniProt Q9BTL3)
inactive: [1] 0.011 | [2] 0.027 | [3] 0.032 | [4] 0.036 | [5] 0.019 | [6] 0.06 | [7] 0.064 | [8] 0.015 | [9] -0.034 | [10] 0.138

RBBP4 (UniProt Q09028)
inactive: [1] 0.002 | [2] -0.032 | [3] 0.014 | [4] -0.023 | [5] 0.057 | [6] 0.026 | [7] -0.054 | [8] -0.07 | [9] -0.003 | [10] 0.012

RAB40C (UniProt Q96S21)
inactive: [1] 0.04 | [2] 0.273 | [3] 0.177 | [4] -0.074 | [5] -0.081 | [6] -0.084 | [7] 0.003 | [8] -0.035 | [9] 0.064 | [10] 0.077
